The data set relates to HL-60 cells. The data set can be described thus: Cell proliferation test (MTT method). To be noted: 48 h, MTT absorbance at 492 nm. It is filed as cell-based. How it is done: Tested drugs with different concentrations were added, and repeated four wells for each drug concentration group, then continued to culture in a CO2 incubator. Cell proliferation was detected by MTT method 48 h after culture. 15 ul MTT (5 mg/ml) was added in each well, and continued to culture for 4 h. Suspension in the well was collected, centrifuged, and supernatant was discarded. 100 ul of DMSO was added into each well to completely dissolve formazan particles. The solution was sucked into the original well, the absorbance at 492 nm was detected by ELISA, and the inhibiting rate was calculated according to the formula CI=(1-A test group /A control group)×100%.
A general note: Formazan colour is commonly taken as a measure of viable cells.

Marks after values point to notes of the source that are not given here.

For `O=[As]([O-])([O-])[O-].[Na+].[Na+].[Na+]` [Na3AsO4], the A492 is reported as 0.331 ± 0.003 ^ (7.5 uM); 0.313 ± 0.011* * (15 uM); 0.293 ± 0.015* * (30 uM); 0.257 ± 0.011*^ (60 uM); 0.215 ± 0.006*^ (120 uM).

The values above are taken from US9205071B2, “Arsenic compounds, their preparation methods and uses thereof” (Changzhou Hi-Tech District Multiple Dimension Industry …, priority 2009, dated 2015).
